B1: SHOX2a (called SHOX2 in the paper), full-length, yeast two-hybrid fusion [human] / SHOX2a (called SHOX2 in the paper), full-length, yeast two-hybrid fusion [human] (parent)
chain 1: MEELTAFVSKSFDQKVKEKKEAITYREVLESGPLRGAKEPTGCTEAGRDDRSSPAVRAAGGGGGGGGGGGGGGGGGGVGGGGAGGGAGGGRSPVRELDMGAAERSREPGSPRLTEVSPELKDRKEDAKGMEDEGQTKIKQRRSRTNFTLEQLNELERLFDETHYPDAFMREELSQRLGLSEARVQVWFQNRRAKCRKQENQLHKGVLIGAASQFEACRVAPYVNVGALRMPFQQDSHCNVTPLSFQVQAQLQLDSAVAHAHHHLHPHLAAHAPYMMFPAPPFGLPLATLAADSASAASVVAAAAAAKTTSKNSSIADLRLKAKKHAAALGL
chain 2: B1 chain 1

Variants of: B1
Test: yeast two-hybrid (β-galactosidase liquid assay)
Conditions: with SHOX2a (called SHOX2 in the paper), S. cerevisiae Y187, SHOX2 in pGBT9 (BD), mutant in pACT2 (AD), CRPG as substrate, parent: 100, read off a plot

Variant | percent of parent (% SHOX2 dimerization)
chain 1 A193P | 25
chain 1 A269D | 100
chain 1 K139E | 110
chain 1 L155V | 34
chain 1 R196C | 92
chain 1 R218Q | 110
chain 1 R319P | 34

Source: PMC3885427
